{"source": "PubChem BioAssay AID1347075", "about": "(National Center for Advancing Translational Sciences (NCATS), 2019)", "note": "Out of some 400,000 compounds screened, about 5,500 (1.4%) were called active. This list was built around the results that the source calls inconclusive (neither active nor inactive); the mix of calls is not that of the screen. Calls follow the shape of the dose curve; as a rule, active = well fitted cell-killing curve with a large enough effect; inconclusive = small, poorly fitted or top-dose-only effect, or effect the other way; inactive = flat fitted curve, though single readings scatter. Where the call is inconclusive, the potency comes from a doubtful curve fit. % is scaled to controls: 0 for no effect and ±100 for the full control effect; potency is read from the fitted curve at half-maximal effect.", "data": [{"assay": "qHTS assay for MDR1-selective chemotherapeutics: Primary screen using the parental adenocarcinoma cell KB-3-1; also: nearly all actives have a fitted effect of over 60% in size", "conditions": "KB-3-1 viability, CellTiter-Glo ATP luminescence, 72 h; activity change, negative = cytotoxic: at 46.1 µM (top of the series)", "in_short": "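Screening of KB-3-1 cells (DMEM, 10% FBS, phenol-red free) ran from lowest to highest compound concentration; after 72 h at 37 °C viability was read luminescently and curves fitted.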", "values": [{"smiles": "O=C1NC[C@H](CCCCN2C[C@H](Cc3ccccc3)N(CCc3ccccc3)C(=O)C2=O)N(CCC2CCCCC2)C1=O", "Potency": "inconclusive: 29.1 µM [cytotoxic, single point]"}, {"smiles": "C#CCOCCOCCOCCNc1nc(N2CCN(C(=O)CCCCCCCCCCNC(=O)[C@H](CCCCN)n3cc(CCO)nn3)CC2)nc(N2CCN(C(=O)CCCCCCCCCCNC(=O)[C@H](CCCN=C(N)N)n3cc(C[C@@H](C)CC)nn3)CC2)n1", "Potency": "inconclusive: 29.1 µM [cytotoxic, single point]"}, {"smiles": "CC1(C)CC(=O)C2=C(C1)c1c(ccc3ncccc13)NC2c1cccs1", "note": "(stereo unspecified)", "Potency": "active: 3.66 µM"}, {"smiles": "CCOc1ccc(N(C(=O)/C=C/C(=O)Nc2cc(C)on2)C(C(=O)NC2CCCC2)c2ccccc2C)cc1", "note": "(stereo unspecified)", "Potency": "active: 9.2 µM"}, {"smiles": "CCOC(=O)C(C)Sc1nc(-c2ccccc2)ccc1C#N", "note": "(stereo unspecified)", "Potency": "inconclusive: 29.1 µM [cytotoxic, single point]"}, {"smiles": "COc1ccc(-c2ccc3c(c2)S(=O)(=O)c2cccc(C(=O)N4CCN(c5ccccn5)CC4)c2C3=O)cc1OC", "Potency": "inactive"}, {"smiles": "Cc1ccnc(Nc2nc(-c3ccc(O)c(O)c3)cs2)c1", "Potency": "inconclusive: 11.6 µM [cytotoxic, partial curve]"}, {"smiles": "CC(C)CNc1ncnc2nc[nH]c12", "Potency": "inactive"}, {"smiles": "CCOc1ccc2nc(/N=C/c3c(C)[nH]n(-c4ccc(C)cc4)c3=O)sc2c1", "Potency": "active: 11.6 µM"}, {"smiles": "CC1CCc2c(c3ccccc3n2C(=O)CCl)C1", "note": "(stereo unspecified)", "Potency": "inconclusive: 16.4 µM [cytotoxic, single point]"}, {"smiles": "CCOC(=O)c1ccccc1NC(=O)COC(=O)CC(C)(C)CC1=NS(=O)(=O)c2ccccc2N1", "Potency": "inconclusive: 29.1 µM [cytotoxic, single point]"}, {"smiles": "O=C1N/C(=C\\c2ccc(O)cc2)C(=O)c2ccccc21", "Potency": "inconclusive: 35.5 µM [cytotoxic, single point]"}, {"smiles": "CCN(CC)c1ccc(N)cc1", "Potency": "inconclusive: 29.1 µM [cytotoxic, single point]"}, {"smiles": "O=C(NC(Cc1ccccc1)C(=O)NCCc1ccccn1)c1cccs1", "note": "(stereo unspecified)", "Potency": "inconclusive: 16.4 µM [cytotoxic, single point]"}, {"smiles": "Cc1ccc2cc(/C=N/NC(=O)[C@H](C)NC(=O)OC(C)(C)C)c(Cl)nc2c1", "Potency": "inconclusive: 29.1 µM [rising, single point]"}, {"smiles": "CCc1ccc(-c2cc3c(=O)n(CC(=O)NCCCN4CCN(CC)CC4)nc(C)n3n2)cc1", "Potency": "inconclusive: 32.6 µM [cytotoxic, single point]"}, {"smiles": "O=C(Nc1ccccc1)NC1(C(=O)NCc2ccc3c(c2)OCO3)CCCCC1", "Potency": "inactive"}, {"smiles": "CN(C)c1cccc2c(/C=N/O)ccc(N(C)C)c12", "activity change, negative = cytotoxic": "inconclusive: 11.3%"}, {"smiles": "CC(OC(=O)c1cc(Br)ccc1O)C(=O)Nc1ccc(S(=O)(=O)N2CCCC2)cc1", "note": "(stereo unspecified)", "Potency": "inconclusive: 18.4 µM [cytotoxic, single point]"}, {"smiles": "COCCN(C(=O)c1csnn1)C(C(=O)NC1CCCC1)c1ccccc1F", "note": "(stereo unspecified)", "Potency": "inactive"}, {"smiles": "COc1ccc(C)cc1NC(=O)n1ncc2cc(Cl)ccc21", "Potency": "inactive"}, {"smiles": "CCN1CCN(C(=O)c2c(-c3ccccc3)noc2C)CC1", "Potency": "inactive"}, {"smiles": "O=C(NC1CCCC1)c1nc2c(nnn2Cc2cccc(Cl)c2)c(=O)[nH]1", "Potency": "inconclusive: 11.6 µM [cytotoxic, partial curve, poor fit]"}, {"smiles": "Cc1ccc(CCNC(=O)C23CN(Cc4ccccc4)CC2C(c2ccc([N+](=O)[O-])cc2)=NO3)cc1", "note": "(stereo unspecified)", "Potency": "inconclusive: 29.1 µM [cytotoxic, single point]"}, {"smiles": "CC(=O)N1CCc2c(sc3c2c(=O)n(-c2ccc(C)cc2)c(=O)n3Cc2ccccc2C)C1", "Potency": "inactive"}, {"smiles": "Cc1ccc(NC(=O)C2COc3ccccc3O2)cc1S(=O)(=O)N1CCCCC1", "note": "(stereo unspecified)", "Potency": "inconclusive: 29.1 µM [cytotoxic, single point]"}, {"smiles": "COc1ccc(/C=C/c2sc3ccccc3[n+]2CCCCI)cc1OC", "Potency": "inconclusive: 29.1 µM [cytotoxic, single point]"}, {"smiles": "Cc1cc(C)nc(N2CCCC(C(=O)NCC(c3ccccc3)c3ccccc3)C2)n1", "note": "(stereo unspecified)", "Potency": "inactive"}, {"smiles": "O=c1[nH]c(SCc2nc3ccccc3n2Cc2ccccc2)nc2ccccc12", "Potency": "inactive"}, {"smiles": "O=C(OCCN1C(=O)c2cccc3c(N4CCOCC4)ccc(c23)C1=O)c1cccc(Cl)c1", "Potency": "active: 13 µM"}, {"smiles": "CC(=O)c1cccc(NC(=O)c2ccc(-c3c(C)noc3C)c3ccoc23)c1", "Potency": "inactive"}, {"smiles": "CC1CCCN(C(=O)CN2C(=O)CSc3ccc(S(=O)(=O)N4CCOCC4)cc32)C1", "note": "(stereo unspecified)", "Potency": "inactive"}, {"smiles": "CCn1cc(Br)c(C(=O)Nc2sc3c(c2C(N)=O)CCCC3)n1", "Potency": "inconclusive: 29.1 µM [rising, single point]"}, {"smiles": "O=C(OCc1ccc(F)cc1)c1cc(S(=O)(=O)N2CCCCC2)ccc1N1CCOCC1", "Potency": "inconclusive: 20.6 µM [cytotoxic, single point]"}, {"smiles": "O=C(C1=NOC2(C1)C(=O)Nc1ccccc12)N1CCCCC1", "note": "(stereo unspecified)", "Potency": "inactive"}, {"smiles": "Cc1cc(Br)c(S(=O)(=O)n2nnc3ccccc32)cc1C", "Potency": "inactive"}, {"smiles": "c1csc(-c2csc3ncnc(NCCCN4CCOCC4)c23)c1", "Potency": "inconclusive: 25.9 µM [cytotoxic, partial curve, poor fit]"}, {"smiles": "CC(C)C(=O)OCc1cc(=O)n2nc(C3CC3)sc2n1", "Potency": "inactive"}, {"smiles": "CCCCCCCCNCCS(=O)(=O)NCc1ccccc1", "Potency": "inconclusive: 29.1 µM [cytotoxic, single point]"}, {"smiles": "Cc1ccc(S(=O)(=O)N(C)C)cc1NC(=O)CSc1nc2ccccc2[nH]1", "Potency": "inactive"}, {"smiles": "O=C1COc2ccc(C(=O)CCl)cc2N1", "Potency": "inconclusive: 6.51 µM [cytotoxic, full curve, poor fit]"}, {"smiles": "O=c1c2c(nc3cc(-c4ccccc4)[nH]n13)CCC2", "Potency": "inactive"}, {"smiles": "CC(C)C1C(=O)N(Cc2cn(CC3CCCCC3)nn2)CCS(=O)(=O)N1Cc1ccc(-c2cccc(CO)c2)cc1", "note": "(stereo unspecified)", "Potency": "inconclusive: 32.6 µM [cytotoxic, single point]"}, {"smiles": "Cc1ccc(N(CC(=O)NC(C)(C)C)C(=O)CNC(=O)c2cccs2)cc1C", "Potency": "inconclusive: 5.8 µM [rising, partial curve]"}, {"smiles": "c1ccc(C[C@H]2CN=C(Nc3ccccc3)N2CCCC2CCCCC2)cc1", "Potency": "inactive"}, {"smiles": "Clc1nc(NCC2CCCO2)c2[nH]cnc2n1", "note": "(stereo unspecified)", "Potency": "inconclusive: 0.326 µM [cytotoxic, full curve, poor fit]"}, {"smiles": "COc1cc(C2Nc3ccccc3-c3nnc(SCc4ccc(C)cc4)nc3O2)cc(OC)c1O", "note": "(stereo unspecified)", "Potency": "inactive"}, {"smiles": "Cc1ccc(CNC(=O)C2CCCCC2C(=O)O)cc1", "note": "(stereo unspecified)", "Potency": "inactive"}, {"smiles": "CCN1C=C(Cc2cccs2)C2=C(C1)C(c1cccs1)C(C#N)=C(N)O2", "note": "(stereo unspecified)", "Potency": "inconclusive: 16.4 µM [cytotoxic, single point]"}, {"smiles": "Cc1c(Cl)cccc1NC(=O)Cn1c(=O)n(Cc2nc(-c3ccccc3)no2)c(=O)c2cc3c(cc21)OCO3", "Potency": "inactive"}, {"smiles": "C=CCSc1nccc(-c2nn(-c3ccc(C)cc3)ccc2=O)n1", "Potency": "active: 6.51 µM"}, {"smiles": "Fc1ccccc1CNCCC(Cc1ccccc1)c1ccc2c(c1)OCO2", "note": "(stereo unspecified)", "Potency": "inconclusive: 29.1 µM [cytotoxic, single point]"}, {"smiles": "Cc1ccc(Cn2c(=O)c3cccnc3n(CC(=O)Nc3cc(Cl)ccc3C)c2=O)cc1", "Potency": "inactive"}, {"smiles": "COc1ccccc1NS(=O)(=O)c1cc(NC(=O)C(C)C)ccc1N1CCCCC1", "Potency": "inconclusive: 29.1 µM [cytotoxic, single point]"}, {"smiles": "CC(=O)c1ccc(OCCCC(=O)Nc2ccc3c(c2)OCCO3)cc1", "Potency": "inactive"}, {"smiles": "O=C(N/C=N/OCc1ccc(Cl)cc1Cl)NOCc1ncc(C(F)(F)F)cc1Cl", "Potency": "inconclusive: 29.1 µM [cytotoxic, single point]"}, {"smiles": "CC1(C)CC(NC(=S)Nc2ccc(S(N)(=O)=O)cc2)CC(C)(C)N1", "Potency": "inactive"}, {"smiles": "O=C(NC1CCCC1)C(c1ccco1)N(C(=O)c1csnn1)c1ccccc1", "note": "(stereo unspecified)", "Potency": "inconclusive: 29.1 µM [rising, single point]"}, {"smiles": "Cc1ccc(/C=C2/Sc3ccccc3N(CC(=O)NCC3CCCO3)C2=O)cc1", "note": "(stereo unspecified)", "Potency": "inconclusive: 29.1 µM [cytotoxic, single point]"}, {"smiles": "CCOC(=O)c1c(C)oc2c1c(C=NC1CCS(=O)(=O)C1)c(O)c1ccccc12", "note": "(stereo unspecified)", "Potency": "inconclusive: 20.6 µM [rising, partial curve, poor fit]"}, {"smiles": "CS(=O)(=O)N(Cc1ccccc1)c1ccc(C(=O)Nc2ccc(Cl)cc2)cc1", "Potency": "inconclusive: 20.6 µM [cytotoxic, single point]"}, {"smiles": "C/C=C/c1cc(CN2CCN(c3ccccc3)CC2)c(O)c(OC)c1", "Potency": "inconclusive: 23.1 µM [cytotoxic, single point]"}, {"smiles": "Cn1ccc(C(=O)N/N=C/c2c[nH]c3ccccc23)n1", "Potency": "active: 18.4 µM"}, {"smiles": "Cn1cc(/C=N\\NC(=O)c2cccs2)c2ccccc21", "Potency": "inactive"}, {"smiles": "Cc1ccc(-c2cc(C(=O)N/N=C/c3ccccc3O)n[nH]2)o1", "Potency": "inconclusive: 18.4 µM [cytotoxic, single point]"}, {"smiles": "Cc1ccc(S(=O)(=O)NCCn2cnc([N+](=O)[O-])n2)cc1", "Potency": "inconclusive: 10.3 µM [rising, partial curve, poor fit]"}, {"smiles": "CCc1ccc(CC2S/C(=C(\\C#N)C(C)=O)NC2=O)cc1", "note": "(stereo unspecified)", "Potency": "inconclusive: 29.1 µM [cytotoxic, single point]"}, {"smiles": "CCCc1cc(C(=O)N2CCCC(Cc3cccc(Cl)c3)(C(=O)OCC)C2)n(C)n1", "note": "(stereo unspecified)", "Potency": "inconclusive: 20.6 µM [cytotoxic, single point]"}, {"smiles": "COCCCNC(=S)NC1CCCCC1", "activity change, negative = cytotoxic": "inconclusive: 8.86%"}, {"smiles": "Cc1ccc(C)c(N2CCN(C(=O)CCc3nc(-c4ccc(Cl)cc4)no3)CC2)c1", "Potency": "inactive"}, {"smiles": "COc1cccc(-c2nc(SCC(=O)Nc3ccc4c(c3)OCCO4)c(-c3ccc(C)cc3)[nH]2)c1", "Potency": "active: 20.6 µM"}]}]}
